Experimental data from patent US20070025915A1.
Results are given in words; binding and its absence hold for the method and conditions named. Some binding calls cover weakened binding; strength is not graded here.

Sequences of proteins named here, by UniProt entry; tags and fusion partners are left off. Residues count along the entry.
UniProt P08603, residues 19-1231: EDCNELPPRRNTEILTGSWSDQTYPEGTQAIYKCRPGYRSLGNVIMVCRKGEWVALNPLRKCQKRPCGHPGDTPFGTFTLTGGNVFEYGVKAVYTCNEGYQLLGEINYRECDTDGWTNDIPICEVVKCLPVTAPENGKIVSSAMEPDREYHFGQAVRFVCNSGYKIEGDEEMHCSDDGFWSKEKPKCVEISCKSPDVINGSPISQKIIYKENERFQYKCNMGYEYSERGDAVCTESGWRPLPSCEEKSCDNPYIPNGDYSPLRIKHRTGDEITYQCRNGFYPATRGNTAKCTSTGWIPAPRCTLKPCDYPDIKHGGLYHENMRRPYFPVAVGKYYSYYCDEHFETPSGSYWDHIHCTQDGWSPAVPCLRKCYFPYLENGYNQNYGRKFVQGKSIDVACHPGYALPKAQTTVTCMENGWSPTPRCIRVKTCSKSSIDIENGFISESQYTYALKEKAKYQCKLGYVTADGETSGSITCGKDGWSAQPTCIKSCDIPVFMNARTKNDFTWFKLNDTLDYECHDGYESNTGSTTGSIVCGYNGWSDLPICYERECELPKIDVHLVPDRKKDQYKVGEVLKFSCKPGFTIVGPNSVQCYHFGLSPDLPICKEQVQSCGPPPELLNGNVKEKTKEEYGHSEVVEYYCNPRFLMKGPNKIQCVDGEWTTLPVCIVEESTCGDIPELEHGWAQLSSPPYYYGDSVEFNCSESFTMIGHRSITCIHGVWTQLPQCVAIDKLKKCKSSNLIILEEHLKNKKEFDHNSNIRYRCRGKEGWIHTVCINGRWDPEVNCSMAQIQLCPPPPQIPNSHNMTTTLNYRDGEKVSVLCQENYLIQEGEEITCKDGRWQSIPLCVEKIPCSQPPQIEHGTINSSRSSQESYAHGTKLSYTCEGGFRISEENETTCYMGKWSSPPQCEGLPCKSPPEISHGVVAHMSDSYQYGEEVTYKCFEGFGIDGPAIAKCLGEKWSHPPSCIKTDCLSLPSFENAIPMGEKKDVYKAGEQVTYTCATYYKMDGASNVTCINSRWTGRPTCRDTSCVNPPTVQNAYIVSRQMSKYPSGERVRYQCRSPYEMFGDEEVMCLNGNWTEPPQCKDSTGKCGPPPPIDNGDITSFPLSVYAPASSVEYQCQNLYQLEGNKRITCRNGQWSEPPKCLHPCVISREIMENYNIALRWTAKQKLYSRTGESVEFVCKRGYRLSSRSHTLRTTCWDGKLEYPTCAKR

Key:
[1] = target: human complement factor H (human) (UniProt P08603); assay: ligand blot of human plasma proteins
[2] = target: human complement factor H (human) (UniProt P08603); assay: non-radioactive ligand blot, 70 nM labeled AM on human plasma proteins

binding [1]: binds
binding [2]: binds
B1: AM labeled with biotin (peptide, UniProt P35318 95-146, looked up)
peptide: YRQSMNNFQGLRSFGCRFGTCTVQKLAHQIYQFTDKDKDNVAPRSKISPQGY
modifications: biotin conjugated through a succinimidyl ester (10:1 linker:AM); site not stated
